The source of these data is paper PMC12370185.

Some of the results follow.

This experiment has as its system c-MYC + MAX + histone octamer. Nature of the experiment: EMSA with sequencing. The following applies: 10 mM Tris-Cl pH 7.5, 50 mM NaCl, 1 mM DTT, 0.25 mg/ml BSA, 2 mM MgCl2, 0.025% Nonidet P-40, 5% glycerol; 28 nM nucleosome library; 10 min on ice then 30 min …; high values mean tight binding; double strand, one strand shown.
In the case of “GATGGACCCTATACGCGGCCTGGGTTCTGAGAGCCTTCAGGACATGTGTCACCGCAGACGACGTTTTAACTTGTAGTGCTAGCTGCTTGTTTCAACTTGCTCCACAAAGGAAAAATAACTATTATGGTCTGGGTGGCACTGGGAAAACATCTTCCATCTTCTAGACCTAGAAGTGAGACTTTTAGCTGAAGAAATGGACTCCAAGTCCAGTGCCAGTCGGATAGTGTTCC”, the binding signal (log2 relative supershift) was 0.192.
The result for “GATGGACCCTATACGCGGCTACCAGAGACTGGACAATTTACAAAAGAAAGTGATTTATTGGACTTAACAGTTCCATGTGGCTGGGGAGGCCTCACAATCACAGTGGAAGGTGAAAGGCAAAAGGCACATCGCACATGGTGGCAGACAGGAGAACAGAGCTTGTGCAGGGAGAATGCCCTTTTACATCATATCTCAAGAGACATATTCACTTGCCAGTCGGATAGTGTTCC” reads 0.168; that for “GATGGACCCTATACGCGGCGGCCTGGACCCAACCCGAAACTCAACAAGCAGCAGCCTGGCCGTGGTGCCTCAAGCCAGCCACTAGAGGGTGCAGTTGAGCTGTCAGCCTGCCTGGAGGGGCGAGGTGGTGGGGGTGAGTGTGCAGGCGTGTGTGTGTGTGTGTGTGTGTGTGCGCGCGCGCGCGCGCCTGTGTGTGGGCGTGTTGTGTGCTGCCAGTCGGATAGTGTTCC”, 0.669.
The result for “GATGGACCCTATACGCGGCATTATGTACACAGTCTCATGGACAAAGGCATTTGTCAAGTCTCTATGATATTTCTAGAAATACCTTACAGGGCATTATGACTATACAAAGTCAGGGTAGGGCAGCAGAATGCCTGTCTTCAAGACTCTCCATCCCAATGCTCAGGACTTGTTATGCTACTCAGACCAGCATCTTTTGCACAAAGTATTTGTTGCCAGTCGGATAGTGTTCC” reads 0.263.
The result for “GATGGACCCTATACGCGGCTAAAGTCCTTCAACATGTGAACAGACACTGTTTCTGAGGCTGTCACACACATGCAGGGAAAAGGATTTACCTTACAAAACAATGTTGCTTTGATAATACCACATCTGCAACCCTAATTGTGCCTTTGTAGCAAGTTGGTTTGGCCATTGGTCATCCTCCACAGCACTGCAATTTATCCTCCAGGAACACATTGCCAGTCGGATAGTGTTCC” reads 0.703; that for “GATGGACCCTATACGCGGCTTGAAAGCCAAACTCTTAGATGTTGTGCATGTCGAAACTGGAACAAAGATTATAATGCAAGTTCAATTTTCCTCAAATATGGATCTCAACATTAATTGTGGTATGCAGCTCACCCACAGCCTTGGGTGTGGTCTATGAATGCAGCTGCTACTCTGTTCTACAATTATTGTATTTTATTGCCATTATGACTGTGCCAGTCGGATAGTGTTCC”, 0.392.
For “GATGGACCCTATACGCGGCATGATTCTCGCCAGTGGTATTAACATATCCTCAGTGGTGAGTATTAACATGGAACTTACTCCAACAATACAGATGCTGAATAAATGTAGTCTAAGTGAAGGAAGAAGGAAAGGTGGGAGCTGCCATCACTCAGAATTGTCCAGCAGGGATTGTGCAAGCTTGTGAATAAAGACAGAGGTTATTGAACAGCGTGCCAGTCGGATAGTGTTCC”, the binding signal (log2 relative supershift) came to 0.683.
Turning to “GATGGACCCTATACGCGGCGAGTAAACCAGTCTGCCTGTGAGAGTATTGACTGTGGTTAAGAATGCGGGATTGTGTTGCAAAGAAGCTCAGGCCTGTAATGTTATCACTCAGCAGGACTGGGTCCCATCAGAAGGCACATGGTGTGCCATGACGTAGCTGGTCTTCGACCACAAAAGCAGACTTTTCTCTGTGAATTAGACAAACCACACTGCCAGTCGGATAGTGTTCC”, the binding signal (log2 relative supershift) came out at 0.247.
Regarding “GATGGACCCTATACGCGGCTGCTGGAATGTTCCTGTATTGCCTGCTTTAGCATGTGTGTTGGCAGGGTGTAGATACATACACCCCCACAACGACCCTCCTCCCACCCTATGTAAATGTACTCACTCTACAGCATTGTAAAGGATTTCATTGTGCCATTTTGTTTTCAGAATCATCTTTCACTCTTTTGTGAGTATAATGATAGTAGCTGTTGCCAGTCGGATAGTGTTCC”, the binding signal (log2 relative supershift) was 0.223.
For “GATGGACCCTATACGCGGCTGTGAAATAACCTGCATTAGAATTACCTGGTGGACAACACATATTAACAATGCATATTCTGAGTCCTCAAAGAACTATCAAATAAGAATCTTTGAGGTGGGGCTACACAATCTCCATCACTGGCAAGCACTCCCAGTACTTCTTATGCACATTACAATTCAAGAACCACTCATGGCTCACATAACTGCTCATGCCAGTCGGATAGTGTTCC”, the binding signal (log2 relative supershift) came to 0.2.
Regarding “GATGGACCCTATACGCGGCGCTTTAGAAATGAATTAAACTCGGTGGAACATTGAATGAGAGTTCACCATTACAATGAGGTACATTTACAATGTTAACAAATGAGGATAAACAGTGATACTTCCCTTTGTGTTATGGGGAGGGGGGCGGGCAAGTGAATGGCCAGGAGCCAAAGGTGGAGGAGAGACATGCTTTTCACAATGTATTCTGATTGCCAGTCGGATAGTGTTCC”, the binding signal (log2 relative supershift) is 0.369.
